Laboratory results reported in publication PMC6825215 (Nature Communications, 2019).

Legend:
[1] = peptide made by a vendor (peptide synthesis; rink amide resin); settings: whole synthesis, mass spectrometry
HCAVSMCs = tested on: HCAVSMCs; set-up: method as in 2 sources, ref 22 = [22]; PMID 17379147; doi:10.1016/j.chembiol.2007.02.007; 22. Yuan H Barnes KR Weissleder R Cantley L Josephson L Covalent reactions of wortmannin under physiological conditions Chem. Biol. 2007 14 321 328 10.1016/j.chembiol.2007.02.007 17379147 ||| ref 23 = [23]; PMID 25889964; doi:10.1186/s12964-015-0102-1; 23. Preta G Cronin JG Sheldon IM Dynasore—not just a dynamin inhibitor Cell Commun. Signal 2015 13 24 10.1186/s12964-015-0102-1 25889964 PMC4396812; settings: cited from earlier work

Question: Which “final purity (method not given)” value ([1]; scale 19 mg) does the source give for VSGWALFKKIS here?
Answer: >95%

Question: With YARAAARQARA-HiBiT as the compound, how does the “final purity (method not given)” value ([1]; scale 20 mg) read?
Answer: >95%

Question: For `O=C(N/N=C/c1ccc(O)c(O)c1)c1cc2ccccc2cc1O` [dynasore, Dynasore], which “time to reversal of inhibitory effect following removal from the media” value (HCAVSMCs) is on record?
Answer: ≤ 20 min

Question: For “Ac-GLWRALWRLLRSLWRLLWRA-cya (N-acetyl, C-terminal cysteamide)”, which final ms purity ([1]; scale 20 mg) is on record?
Answer: ≥80%

Question: With `COC[C@H]1OC(=O)c2coc3c2[C@@]1(C)C1=C(C3=O)[C@@H]2CCC(=O)[C@@]2(C)C[C@H]1OC(C)=O` [wortmannin, Wortmannin] as the compound, how does the “duration of bioactivity following removal from the media” value (HCAVSMCs) read?
Answer: 48 h

For some assays here: Plain letter strings leave the end groups untold.
